No constants are given. Whether binding was seen depends on the method and setting.

The target in test [1] is Homo sapiens Kif15 motor domain with cover strand and neck linker (Kif15 1-375) (human) (UniProt Q9NS87). In words: SEC; analytical gel filtration, Superose 12 10/300 GL, 0.5 ml/min, 50 mM PIPES pH 6.8, 250 mM NaCl, 2 mM MgCl2, 1 mM DTT, calibrated with proteins of known molecular mass; both purified. On the technique in general: In gel filtration, larger molecules generally elute earlier.

Test [2] concerns the target Homo sapiens Kif15 motor domain and neck-linker region (Kif15 19-375) (human) (UniProt Q9NS87). Described as above.

B1: Homo sapiens Kif15 motor domain with cover strand and neck linker (Kif15 1-375) (domain or fragment, UniProt Q9NS87 1-375)
chain: MAPGCKTELRSVTNGQSNQPSNEGDAIKVFVRIRPPAERSGSADGEQNLCLSVLSSTSLRLHSNPEPKTFTFDHVADVDTTQESVFATVAKSIVESCMSGYNGTIFAYGQTGSGKTFTMMGPSESDNFSHNLRGVIPRSFEYLFSLIDREKEKAGAGKSFLCKCSFIEIYNEQIYDLLDSASAGLYLREHIKKGVFVVGAVEQVVTSAAEAYQVLSGGWRNRRVASTSMNRESSRSHAVFTITIESMEKSNEIVNIRTSLLNLVDLAGSERQKDTHAEGMRLKEAGNINRSLSCLGQVITALVDVGNGKQRHVCYRDSKLTFLLRDSLGGNAKTAIIANVHPGSRCFGETLSTLNFAQRAKLIKNKAVVNEDTQG
As for B1, the binding result in test [1] is on record as “no binding”.

B2: Homo sapiens Kif15 motor domain and neck-linker region (Kif15 19-375) (domain or fragment, UniProt Q9NS87 19-375)
chain: QPSNEGDAIKVFVRIRPPAERSGSADGEQNLCLSVLSSTSLRLHSNPEPKTFTFDHVADVDTTQESVFATVAKSIVESCMSGYNGTIFAYGQTGSGKTFTMMGPSESDNFSHNLRGVIPRSFEYLFSLIDREKEKAGAGKSFLCKCSFIEIYNEQIYDLLDSASAGLYLREHIKKGVFVVGAVEQVVTSAAEAYQVLSGGWRNRRVASTSMNRESSRSHAVFTITIESMEKSNEIVNIRTSLLNLVDLAGSERQKDTHAEGMRLKEAGNINRSLSCLGQVITALVDVGNGKQRHVCYRDSKLTFLLRDSLGGNAKTAIIANVHPGSRCFGETLSTLNFAQRAKLIKNKAVVNEDTQG
B2: the binding entry in test [2] is “no binding”.

(Values after publication PMC3919264.)
